Results taken from paper PMC12837008.
These are yes or no findings as the source states them, for the method shown. Binding seen in cells or lysates may run through a third protein. Some entries that bind do so weakly or less than the wild type.

Sequences of proteins named here, by UniProt entry; tags and fusion partners are left off. Residues count along the entry.
UniProt Q9H1D0: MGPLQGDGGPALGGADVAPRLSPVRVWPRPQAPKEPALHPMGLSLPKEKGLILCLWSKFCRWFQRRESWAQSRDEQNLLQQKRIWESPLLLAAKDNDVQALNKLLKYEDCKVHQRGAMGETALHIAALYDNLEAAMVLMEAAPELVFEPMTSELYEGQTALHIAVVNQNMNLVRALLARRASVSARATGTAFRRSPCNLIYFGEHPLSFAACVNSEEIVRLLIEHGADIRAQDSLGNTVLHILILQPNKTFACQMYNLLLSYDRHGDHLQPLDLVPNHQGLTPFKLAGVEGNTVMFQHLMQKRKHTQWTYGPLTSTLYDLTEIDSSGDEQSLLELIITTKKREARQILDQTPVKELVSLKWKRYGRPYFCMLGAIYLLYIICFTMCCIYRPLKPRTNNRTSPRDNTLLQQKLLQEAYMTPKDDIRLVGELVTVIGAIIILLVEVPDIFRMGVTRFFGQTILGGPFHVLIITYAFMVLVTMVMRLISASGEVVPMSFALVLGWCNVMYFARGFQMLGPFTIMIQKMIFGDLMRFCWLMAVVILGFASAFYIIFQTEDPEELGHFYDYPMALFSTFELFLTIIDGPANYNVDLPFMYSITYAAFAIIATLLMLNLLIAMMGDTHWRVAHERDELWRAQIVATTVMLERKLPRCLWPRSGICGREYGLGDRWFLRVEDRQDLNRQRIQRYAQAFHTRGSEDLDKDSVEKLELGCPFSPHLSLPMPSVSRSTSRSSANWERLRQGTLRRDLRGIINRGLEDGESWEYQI
UniProt P11717, residues 41-2491: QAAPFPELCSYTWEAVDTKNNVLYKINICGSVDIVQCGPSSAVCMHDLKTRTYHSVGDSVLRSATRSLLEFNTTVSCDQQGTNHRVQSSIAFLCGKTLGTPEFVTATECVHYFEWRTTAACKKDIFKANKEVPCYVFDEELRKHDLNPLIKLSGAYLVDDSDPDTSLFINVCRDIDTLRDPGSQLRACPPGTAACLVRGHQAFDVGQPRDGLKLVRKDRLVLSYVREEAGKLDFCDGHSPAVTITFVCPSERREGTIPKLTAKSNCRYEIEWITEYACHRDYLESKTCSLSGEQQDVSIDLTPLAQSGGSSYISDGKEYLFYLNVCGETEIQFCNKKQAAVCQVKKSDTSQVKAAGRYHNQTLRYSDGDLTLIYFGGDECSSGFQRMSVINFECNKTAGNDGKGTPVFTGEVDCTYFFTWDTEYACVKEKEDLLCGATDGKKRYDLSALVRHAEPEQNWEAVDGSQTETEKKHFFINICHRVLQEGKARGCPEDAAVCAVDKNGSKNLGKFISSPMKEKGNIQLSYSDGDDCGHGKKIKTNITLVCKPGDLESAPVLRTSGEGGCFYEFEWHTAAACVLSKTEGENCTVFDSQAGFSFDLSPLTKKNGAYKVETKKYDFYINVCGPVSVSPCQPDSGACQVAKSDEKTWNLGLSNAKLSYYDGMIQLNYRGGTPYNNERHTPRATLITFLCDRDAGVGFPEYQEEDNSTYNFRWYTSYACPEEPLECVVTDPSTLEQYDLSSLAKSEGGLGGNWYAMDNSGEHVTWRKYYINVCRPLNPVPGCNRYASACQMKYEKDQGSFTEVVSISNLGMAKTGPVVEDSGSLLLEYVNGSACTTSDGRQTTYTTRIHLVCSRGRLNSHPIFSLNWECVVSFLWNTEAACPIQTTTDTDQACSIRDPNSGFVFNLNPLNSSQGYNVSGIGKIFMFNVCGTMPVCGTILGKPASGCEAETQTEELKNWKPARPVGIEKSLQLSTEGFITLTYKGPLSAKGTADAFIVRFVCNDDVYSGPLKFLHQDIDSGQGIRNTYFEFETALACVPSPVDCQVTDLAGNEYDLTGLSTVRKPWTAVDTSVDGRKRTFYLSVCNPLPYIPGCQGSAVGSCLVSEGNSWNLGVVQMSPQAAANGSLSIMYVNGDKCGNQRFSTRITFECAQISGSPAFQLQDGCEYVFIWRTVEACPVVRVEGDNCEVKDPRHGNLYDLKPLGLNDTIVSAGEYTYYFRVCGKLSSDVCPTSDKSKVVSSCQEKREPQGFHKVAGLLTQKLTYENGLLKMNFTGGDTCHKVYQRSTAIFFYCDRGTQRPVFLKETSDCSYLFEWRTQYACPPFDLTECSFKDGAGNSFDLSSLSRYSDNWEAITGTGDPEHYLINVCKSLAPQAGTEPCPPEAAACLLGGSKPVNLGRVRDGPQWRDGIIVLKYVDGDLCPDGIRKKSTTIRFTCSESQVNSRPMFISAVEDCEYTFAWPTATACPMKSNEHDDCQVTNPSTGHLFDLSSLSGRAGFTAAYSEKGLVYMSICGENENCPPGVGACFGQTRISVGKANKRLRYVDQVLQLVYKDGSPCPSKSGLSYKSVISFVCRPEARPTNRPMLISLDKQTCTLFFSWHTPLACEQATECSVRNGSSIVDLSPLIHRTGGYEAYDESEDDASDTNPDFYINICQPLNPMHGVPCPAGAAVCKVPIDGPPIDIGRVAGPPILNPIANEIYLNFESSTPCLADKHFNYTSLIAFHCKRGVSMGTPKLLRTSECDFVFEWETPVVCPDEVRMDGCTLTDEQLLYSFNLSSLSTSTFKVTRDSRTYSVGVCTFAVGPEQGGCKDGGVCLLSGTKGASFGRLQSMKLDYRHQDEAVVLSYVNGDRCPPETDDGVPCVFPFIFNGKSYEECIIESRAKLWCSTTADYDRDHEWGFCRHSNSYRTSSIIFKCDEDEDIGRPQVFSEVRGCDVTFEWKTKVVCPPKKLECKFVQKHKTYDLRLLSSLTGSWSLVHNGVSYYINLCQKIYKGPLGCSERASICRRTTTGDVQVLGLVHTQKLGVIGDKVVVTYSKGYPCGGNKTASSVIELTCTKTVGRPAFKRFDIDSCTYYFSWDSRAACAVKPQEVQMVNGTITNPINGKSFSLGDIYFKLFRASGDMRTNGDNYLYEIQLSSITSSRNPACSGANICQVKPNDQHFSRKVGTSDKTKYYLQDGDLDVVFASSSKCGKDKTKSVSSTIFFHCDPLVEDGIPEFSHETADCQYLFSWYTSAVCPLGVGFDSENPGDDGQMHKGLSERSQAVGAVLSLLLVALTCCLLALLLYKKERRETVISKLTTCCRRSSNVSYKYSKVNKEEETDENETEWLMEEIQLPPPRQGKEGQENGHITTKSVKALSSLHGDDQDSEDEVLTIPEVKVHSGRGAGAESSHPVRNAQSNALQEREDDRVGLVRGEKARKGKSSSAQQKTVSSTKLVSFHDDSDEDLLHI

What was measured:
[1] = target: TRPV6mRFP (TRPV6 fused to mRFP) (UniProt Q9H1D0); experiment: co-IP; HEK293 cells co-transfected with TRPV6mRFP and IGF2ReGFP; RIPA lysate (150 mM NaCl, 50 mM Tris-HCl pH 8.0, 5 mM EDTA, 1% NP-40, 0.1% SDS, 0.5% deoxycholate); overnight at 4 °C with Dynabeads Protein A/G carrying TRPV6 antibody 429 or GFP antibody (rabbit IgG or mouse IgG as controls); Western blot with antibody 429 or GFP antibody
[2] = target: IGF2ReGFP (cation independent mannose-6-phosphate receptor, CI-M6PR/IGF2R, fused to eGFP) (human (cloned from BeWo cDNA)) (UniProt P11717); experiment: as above

IGF2ReGFP (cation independent mannose-6-phosphate receptor, CI-M6PR/IGF2R, fused to eGFP) (from UniProt P11717 41-2491)
binding [1]: binds

TRPV6mRFP (TRPV6 fused to mRFP) (from UniProt Q9H1D0 1-765)
binding [2]: binds
